{
  "source": "patent US5019647A",
  "about": "(Merck & Co., Inc., priority 1988, dated 1991)",
  "experiment": "general procedure: peptide synthesis; dicyclohexylcarbodiimide / 1-hydroxybenzotriazole",
  "details": "coupling step, reverse-phase HPLC",
  "note": "HELM strings list residues between dots; [ac] is acetyl, [am] amide, other brackets name non-standard units.",
  "data": [
    {"substance": "PEPTIDE1{[ac].H.W.A.V.G.H.[LeuolOEt]}$$$$V2.0", "values": [
      {"measurement": "final HPLC purity", "value": 97.5, "unit": "%"}
    ]}
  ]
}
